Measured values published in the supplement of paper PMC3334620.
Over roughly 33,000 sequences, “E-score (-0.5 to 0.5)” has its median near -0.0034; the highest 2% begin near 0.25. Some of the results follow.

Biological target: T1, Yap3 (UniProt P38749)
T1 sequence: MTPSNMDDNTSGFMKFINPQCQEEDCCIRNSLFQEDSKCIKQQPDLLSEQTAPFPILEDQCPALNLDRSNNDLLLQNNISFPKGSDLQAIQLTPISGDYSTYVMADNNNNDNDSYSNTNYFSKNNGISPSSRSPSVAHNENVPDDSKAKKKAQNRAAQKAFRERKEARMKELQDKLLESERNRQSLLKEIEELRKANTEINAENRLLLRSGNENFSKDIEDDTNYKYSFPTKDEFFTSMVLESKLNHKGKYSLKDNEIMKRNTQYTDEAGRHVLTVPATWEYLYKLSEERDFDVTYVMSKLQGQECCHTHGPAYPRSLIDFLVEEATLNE
Assay: PBM E-score (8-mer binding enrichment) (E-score (-0.5 to 0.5)); higher = stronger / more preferred TF binding
Details: protein concentration: 100 nM; construct: GST-full length
Summary of the method: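 Universal all-10-mer Agilent arrays, fresh or stripped once, were converted to double-stranded form by primer extension. GST-tagged yeast transcription factors from PURExpress in vitro transcription/translation, full-length or DNA-binding domain only, were applied at about 100-200 nM and detected with fluorescent anti-GST. After masliner normalisation, the Universal PBM Analysis Suite scored each ungapped eight-base word together with its reverse complement by E-score.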

| Sequence | PBM E-score |
| --- | --- |
| AAGACTTG | 0.0235 |
| GTTAGTAA | 0.217 |
| GTTATAAA | 0.283 |
| CTCACAGA | -0.11 |
| ATGTAGTG | 0.0548 |
| CTACGGGC | -0.258 |
| TCAAGTGA | 0.0272 |
| AAGCATTA | 0.106 |
| AATATTGA | 0.221 |
| TCTCAGAA | -0.0479 |
| TGGGAAAA | 0.00484 |
| CAATGCGC | 0.116 |
| ATCATCAC | 0.0853 |
| CCGTAGCG | -0.173 |
| TAATTGTA | 0.167 |
| AGAACCTC | -0.134 |
| CTGGGGAA | -0.263 |
| CCTCATCC | -0.283 |
| CAGGTAGC | -0.203 |
| ACTTCGCA | -0.0112 |
| ACACCGTA | -0.00758 |
| GCTTTGAC | 0.119 |
| ACCGGGCC | -0.243 |
| ACCGACAC | 0.025 |
| AGGTATAC | 0.0842 |

| Sequence | PBM E-score |
| --- | --- |
| AAGGACGA | -0.141 |
| GACGTATC | -0.18 |
| CAATCTCG | -0.0908 |
| AAAAGAGG | 0.00617 |
| CGACGCCG | -0.181 |
| ATGCTCCA | -0.0487 |
| GAATTCGC | 0.0479 |
| ACTAACAA | 0.106 |
| TCCAACAA | 0.0108 |
| TAGTAGGA | -0.0796 |
| CCCTACCC | -0.115 |
| GACGTGCA | 0.0279 |
| GCAAACGC | -0.0256 |
| AGATGACT | -0.0919 |
| AGGCCTCG | -0.274 |
| AATATTCG | 0.223 |
| AACCTCGC | 0.0227 |
| CCCTCCAG | -0.374 |
| GACCGAGA | 0.0894 |
| AAGCGTCG | -0.104 |
| GTTGCCGA | -0.0261 |
| ATCGTCCC | 0.108 |
| AGCCTACT | -0.0645 |
| CGTCTTCC | -0.0322 |
| GCCATCAA | 0.114 |

| Sequence | PBM E-score |
| --- | --- |
| TAACTTGA | 0.0373 |
| CCTACGCA | -0.0539 |
| CTCCATTA | -0.109 |
| CCGACGAC | -0.0462 |
| AATATAAT | 0.179 |
| CCTTAGAC | -0.108 |
| ACCACAAA | 0.163 |
| AGGCAGCA | 0.184 |
| CGTGCCAG | -0.258 |
| AAGGTGAT | 0.112 |
| GTTCGGTA | 0.0961 |
| TGGCCGAA | 0.0477 |
| CTCTCATA | 0.0903 |
| CGTCTACA | -0.155 |
| AACGGATG | -0.101 |
| CGCCACGA | -0.252 |
| ACCAAATA | 0.177 |
| ACGCGGGA | 0.0897 |
| GCCTGCAC | -0.176 |
| GTTACATA | 0.202 |
| ACTTTGTG | 0.0964 |
| CAGCATTC | -0.0156 |
| ATCTGAAC | -0.0175 |
| ACTTCTGG | -0.0349 |
| AGTCGCTC | -0.0879 |

Seven entries drawn at random from the list so far, as already listed:

| Sequence | PBM E-score |
| --- | --- |
| CCGACGAC | -0.0462 |
| CAGGTAGC | -0.203 |
| AATATTGA | 0.221 |
| ACGCGGGA | 0.0897 |
| CTGGGGAA | -0.263 |
| CCTACGCA | -0.0539 |
| GCTTTGAC | 0.119 |

(next part)

| Sequence | PBM E-score |
| --- | --- |
| CCAACATA | 0.305 |
| CAAGTCTG | -0.175 |
| CGTGCGCA | -0.0258 |
| CAGGGTGA | -0.131 |
| CCCTAAGC | -0.167 |
| CGATGCTA | 0.0583 |
| CATGACAC | 0.197 |
| ACAAAAAG | 0.239 |
| CCCCTACC | -0.212 |
| CGATGCTC | -0.179 |
| TCACTGCA | 0.247 |
| TAAACGGA | 0.186 |
| AGCCACAG | -0.278 |
| GAAGTAGA | 0.0861 |
| ACAAGCAT | -0.0197 |
| ATGCTGAC | -0.13 |
| CCCGATAG | -0.101 |
| ATCTACAC | 0.0471 |
| CGGCCTAC | -0.00923 |
| ACTTTGTA | 0.0238 |
| CGTTATGC | 0.127 |
| CTTACTGA | 0.0344 |
| CAATTCCA | -0.102 |
| TTAGCGAA | 0.132 |
| CATTGAAG | -0.114 |

| Sequence | PBM E-score |
| --- | --- |
| CGGCTCGC | 0.0898 |
| CCCTACTA | -0.13 |
| GATATGTA | 0.138 |
| CAGCAAAC | 0.098 |
| CGATACGA | -0.0959 |
| AATAAGAT | 0.075 |
| TAGCGTGA | 0.0431 |
| TGGGTACA | -0.127 |
| GGGTAATA | 0.0455 |
| ATCATTTG | 0.00757 |
| ACTTTTAT | 0.0969 |
| AGCGCAAT | 0.0706 |
| CTGCTAGC | -0.26 |
| CTGAATTA | 0.199 |
| AAATTACT | 0.304 |
| AACCAGAA | 0.00114 |
| GAAAGTGA | 0.152 |
| ACTAGGAC | 0.0231 |
| AACTCTGA | 0.0176 |
| AGATCTTG | -0.0561 |
| CCGACCAC | -0.0187 |
| AAGTCCGT | -0.131 |
| ACGTCGAA | 0.0715 |
| GGTTTAAA | 0.0971 |
| CAGAAAGC | 0.0733 |

| Sequence | PBM E-score |
| --- | --- |
| ATTGTCTG | 0.11 |
| ATGGTCGG | -0.138 |
| AGTACCGC | 0.0296 |
| GTGCACAA | 0.00296 |
| AGGCATAA | -0.0192 |
| CTGCACTA | 0.262 |
| CAATATAG | 0.218 |
| ATAACGAA | 0.235 |
| ACAGTGGG | -0.178 |
| AAAGTATA | 0.235 |
| CCGTACGG | -0.0965 |
| CTTGTTCA | 0.0982 |
| AATAATTG | 0.203 |
| CAAGCACA | -0.0433 |
| ACCTCCGC | -0.128 |
| CAGACCAA | 0.0291 |
| CAAGGTTA | 0.00471 |
| AGCGACCG | -0.0678 |
| CAACAGGG | -0.116 |
| AACGGCGG | -0.208 |
| AACACACA | 0.163 |
| TGCGCAAA | 0.0388 |
| GAGATCAC | 0.125 |
| AAAGTAAT | 0.216 |
| AGAAGTAC | -0.0902 |

| Sequence | PBM E-score |
| --- | --- |
| GAATTAGC | 0.0202 |
| TCACAGCA | 0.00818 |
| TGCCAGCA | -0.0788 |
| GTCGTGAA | -0.174 |
| GCGGTACC | -0.105 |
| AACGGCCC | -0.264 |
| CCGTGGTA | -0.165 |
| CCAGAAAA | 0.189 |
| CTAATGAC | 0.126 |
| CATCATAA | 0.196 |
| CCTTTAGA | -0.149 |
| CAACAACG | 0.133 |
| CCGATAGA | -0.0967 |
| ATCGTGAA | 0.0514 |
| ACGGTATC | 0.103 |
| CAGTAAAA | 0.161 |
| ATGCGTCG | -0.0312 |
| TAAGAATA | -0.0571 |
| GACGGCTA | -0.0139 |
| AGGGACAT | 0.0801 |
| AATGATAT | 0.242 |
| GTGCCTAA | -0.196 |
